These are yes or no findings as the source states them, for the method shown. In cells and extracts the contact can be indirect. Some binding calls cover weakened binding; strength is not graded here.
What was measured:
[1] = molecular target: T1, LGN (mouse, MELC) (mouse (endogenous in MELC)) (UniProt Q8VDU0); assay: co-IP; induced MELC lysates (50 mM HEPES pH 7.5, 150 mM NaCl, 1% NP-40) precipitated with anti-4.1R, anti-Numb, anti-LGN, anti-NuMA or anti-p150^Glued Ab on protein A-Sepharose, rabbit or mouse IgG as controls; immunoblot with each respective Ab
T1 sequence: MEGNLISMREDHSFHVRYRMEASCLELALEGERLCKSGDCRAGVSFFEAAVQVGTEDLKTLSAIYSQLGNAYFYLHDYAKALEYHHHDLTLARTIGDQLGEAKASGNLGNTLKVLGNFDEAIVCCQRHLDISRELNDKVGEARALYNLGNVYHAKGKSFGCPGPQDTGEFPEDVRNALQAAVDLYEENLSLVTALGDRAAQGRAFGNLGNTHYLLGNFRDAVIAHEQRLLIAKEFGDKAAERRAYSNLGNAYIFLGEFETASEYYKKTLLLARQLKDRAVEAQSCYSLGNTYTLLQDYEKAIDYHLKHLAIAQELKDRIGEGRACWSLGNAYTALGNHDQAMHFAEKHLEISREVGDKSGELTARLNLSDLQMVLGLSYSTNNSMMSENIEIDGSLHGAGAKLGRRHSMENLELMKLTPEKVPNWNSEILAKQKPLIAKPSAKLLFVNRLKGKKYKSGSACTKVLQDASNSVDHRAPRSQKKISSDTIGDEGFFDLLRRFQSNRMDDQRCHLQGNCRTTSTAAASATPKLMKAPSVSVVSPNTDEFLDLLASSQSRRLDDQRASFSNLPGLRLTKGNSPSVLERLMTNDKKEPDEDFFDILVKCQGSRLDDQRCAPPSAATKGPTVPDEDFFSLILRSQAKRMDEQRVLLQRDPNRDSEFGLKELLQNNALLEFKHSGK

The chains behind the UniProt entries cited, without tags or fusion partners.
UniProt E9Q7G0: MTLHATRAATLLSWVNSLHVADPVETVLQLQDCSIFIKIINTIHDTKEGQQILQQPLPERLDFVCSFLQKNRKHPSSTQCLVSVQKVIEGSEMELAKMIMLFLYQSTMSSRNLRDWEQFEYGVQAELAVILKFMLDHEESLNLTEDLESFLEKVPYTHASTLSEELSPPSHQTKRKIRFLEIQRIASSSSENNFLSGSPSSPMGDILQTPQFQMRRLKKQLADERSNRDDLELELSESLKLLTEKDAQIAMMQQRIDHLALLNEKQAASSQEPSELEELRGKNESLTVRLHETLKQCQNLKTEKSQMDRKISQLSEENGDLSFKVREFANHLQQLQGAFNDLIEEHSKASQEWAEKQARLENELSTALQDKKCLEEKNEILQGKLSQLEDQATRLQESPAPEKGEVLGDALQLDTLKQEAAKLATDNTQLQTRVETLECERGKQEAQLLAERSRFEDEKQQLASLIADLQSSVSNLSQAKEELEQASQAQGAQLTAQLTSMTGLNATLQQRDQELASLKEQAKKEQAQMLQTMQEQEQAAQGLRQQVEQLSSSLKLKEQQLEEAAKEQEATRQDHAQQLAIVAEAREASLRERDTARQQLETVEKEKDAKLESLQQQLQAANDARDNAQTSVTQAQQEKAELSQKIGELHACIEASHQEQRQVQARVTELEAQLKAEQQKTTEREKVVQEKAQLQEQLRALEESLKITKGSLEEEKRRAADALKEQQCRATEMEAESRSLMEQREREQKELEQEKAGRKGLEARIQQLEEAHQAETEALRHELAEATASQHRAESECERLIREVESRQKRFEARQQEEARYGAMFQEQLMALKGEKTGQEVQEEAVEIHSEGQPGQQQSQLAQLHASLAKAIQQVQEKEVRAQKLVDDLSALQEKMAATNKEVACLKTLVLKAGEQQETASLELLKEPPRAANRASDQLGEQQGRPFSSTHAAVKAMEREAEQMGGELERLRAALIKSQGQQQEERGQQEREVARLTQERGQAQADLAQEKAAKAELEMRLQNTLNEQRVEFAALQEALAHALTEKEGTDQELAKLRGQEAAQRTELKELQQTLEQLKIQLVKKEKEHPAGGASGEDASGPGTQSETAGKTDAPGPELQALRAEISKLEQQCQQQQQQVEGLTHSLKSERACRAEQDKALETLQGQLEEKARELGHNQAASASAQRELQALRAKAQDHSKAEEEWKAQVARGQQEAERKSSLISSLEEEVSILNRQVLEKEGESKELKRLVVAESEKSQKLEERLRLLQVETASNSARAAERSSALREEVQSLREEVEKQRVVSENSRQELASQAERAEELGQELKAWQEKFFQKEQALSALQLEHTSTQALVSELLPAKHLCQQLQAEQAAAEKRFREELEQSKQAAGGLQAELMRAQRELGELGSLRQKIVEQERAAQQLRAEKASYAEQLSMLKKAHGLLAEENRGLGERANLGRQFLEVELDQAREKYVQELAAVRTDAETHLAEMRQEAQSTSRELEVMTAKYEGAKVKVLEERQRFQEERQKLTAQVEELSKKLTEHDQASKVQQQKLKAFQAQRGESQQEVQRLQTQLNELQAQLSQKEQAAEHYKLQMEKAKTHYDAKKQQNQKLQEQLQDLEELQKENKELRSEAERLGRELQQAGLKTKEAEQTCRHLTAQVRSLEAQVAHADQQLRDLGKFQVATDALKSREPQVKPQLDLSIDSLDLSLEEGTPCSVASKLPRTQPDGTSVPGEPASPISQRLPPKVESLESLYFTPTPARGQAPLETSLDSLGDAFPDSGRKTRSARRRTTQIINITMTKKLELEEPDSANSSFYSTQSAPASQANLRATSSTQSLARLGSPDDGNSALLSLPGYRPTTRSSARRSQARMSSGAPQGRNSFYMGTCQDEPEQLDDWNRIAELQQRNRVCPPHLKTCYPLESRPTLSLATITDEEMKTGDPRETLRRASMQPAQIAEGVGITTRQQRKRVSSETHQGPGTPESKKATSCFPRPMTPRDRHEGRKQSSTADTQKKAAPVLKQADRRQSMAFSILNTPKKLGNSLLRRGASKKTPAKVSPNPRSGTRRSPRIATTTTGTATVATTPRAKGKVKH
UniProt O08788: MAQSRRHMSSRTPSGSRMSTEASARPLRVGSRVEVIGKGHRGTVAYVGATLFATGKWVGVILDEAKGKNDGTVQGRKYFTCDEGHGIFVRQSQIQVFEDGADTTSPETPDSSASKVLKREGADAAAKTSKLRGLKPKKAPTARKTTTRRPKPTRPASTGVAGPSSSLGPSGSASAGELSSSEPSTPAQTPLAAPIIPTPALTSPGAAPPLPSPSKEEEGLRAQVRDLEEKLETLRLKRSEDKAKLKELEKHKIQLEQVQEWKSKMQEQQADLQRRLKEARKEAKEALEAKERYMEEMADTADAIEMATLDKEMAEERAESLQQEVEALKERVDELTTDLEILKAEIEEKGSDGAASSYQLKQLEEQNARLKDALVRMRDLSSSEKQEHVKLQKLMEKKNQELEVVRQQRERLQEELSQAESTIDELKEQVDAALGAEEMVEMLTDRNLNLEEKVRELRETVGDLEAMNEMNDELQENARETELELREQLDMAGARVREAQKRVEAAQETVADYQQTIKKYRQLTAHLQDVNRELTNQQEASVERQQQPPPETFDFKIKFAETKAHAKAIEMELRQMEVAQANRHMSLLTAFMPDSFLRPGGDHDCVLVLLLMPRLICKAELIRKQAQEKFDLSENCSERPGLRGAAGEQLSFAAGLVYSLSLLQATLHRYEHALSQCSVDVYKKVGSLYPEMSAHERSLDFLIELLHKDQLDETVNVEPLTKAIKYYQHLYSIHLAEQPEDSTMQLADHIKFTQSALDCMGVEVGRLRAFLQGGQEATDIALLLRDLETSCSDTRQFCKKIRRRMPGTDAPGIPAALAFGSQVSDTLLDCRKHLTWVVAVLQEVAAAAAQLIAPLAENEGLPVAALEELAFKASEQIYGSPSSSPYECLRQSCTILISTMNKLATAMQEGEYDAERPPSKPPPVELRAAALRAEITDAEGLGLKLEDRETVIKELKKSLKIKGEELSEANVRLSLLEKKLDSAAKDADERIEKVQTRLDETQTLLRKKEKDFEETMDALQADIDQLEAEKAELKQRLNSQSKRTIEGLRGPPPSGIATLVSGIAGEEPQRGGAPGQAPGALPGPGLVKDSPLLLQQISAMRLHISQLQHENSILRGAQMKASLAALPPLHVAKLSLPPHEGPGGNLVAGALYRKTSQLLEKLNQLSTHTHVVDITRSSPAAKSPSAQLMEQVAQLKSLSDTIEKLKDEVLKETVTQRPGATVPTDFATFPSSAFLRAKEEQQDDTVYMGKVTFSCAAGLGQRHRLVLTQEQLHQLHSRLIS

[2] = molecular target: NuMA (mouse, MELC) (mouse (endogenous in MELC)) (UniProt E9Q7G0); assay: as above

p150^Glued (mouse, MELC) (from UniProt O08788 1-1281)
binding [1]: binds | binding [2]: binds

NuMA (mouse, MELC) (from UniProt E9Q7G0 1-2094)
binding [1]: binds

Reference: publication PMC8408529
